{"source": "patent US20030113833A1", "about": "“Device for measuring extracellular potential, method of measuring extracellular potential by using the same and apparatus for quickly screening drug provided therewith” (priority 2001, published 2003)", "origin": "cited, not measured here", "tested_on": "Ca ion channel of smooth muscle cells", "settings": "smooth muscle cells stimulated by 10 μM norepinephrine; intracellular recording; cited from earlier work", "note": "For at least one compound, name, drawing or mass did not settle the structure.", "data": [{"smiles": "COC(=O)C1=C(C)NC(C)=C(C(=O)OC)C1c1ccccc1[N+](=O)[O-]", "note": "[nifedipine]", "values": [{"measurement": "activity of the Ca ion channel", "result": "inhibited by nifedipine in a concentration-dependent manner"}]}]}
